PubChem BioAssay AID1159597 – NIAID | 2016
Screen: 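Role of canonical TLR signalling genes in the human macrophage LPS response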. Cells: human THP-1 B5 reporter clone (monocytic leukaemia line), PMA-differentiated to macrophage-like cells. Reagent: single siRNA against human genes. Duration: LPS for 4 h before read-out; assayed 48 to 72 h after siRNA transfection. Conditions: LPS (Salmonella minnesota R595) for 4 h; concentration not given. Read-out: 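After 4 h LPS, firefly TNF promoter luciferase over renilla, as a plate median/MAD robust z-score averaged across replicates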. Direction: TNF reporter z-score: higher = stronger TNF promoter activity after LPS. Active means: In these data the active calls have TNF reporter z-score, replicate mean at about -1.5 or lower, or at about 1.53 or higher. Calls: active = clear shift in reporter, either direction; inactive = little shift in reporter.
Here is a random part of 756 reagents. Over the whole deposit, 140 (19%) are marked active. 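Calls mark clear shifts in either direction, lowered or raised; calls are per siRNA, gene-level medians over six siRNAs not deposited.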 A number with no mark means an inactive call. The numbers tell different reagents against one gene apart. Reagent sequences are not shown. Not stated in the record: the amount of reagent.

Gene | reagent | TNF reporter z-score, replicate mean
PIK3CA | 1 | 0.405
PIK3CA | 2 | -0.212
PIK3CA | 3 | 1.44
PIK3CA | 4 | -0.217
PIK3CA | 5 | -0.985
PIK3CA | 6 | 0.44
BTK | 1 | -0.262
BTK | 2 | 0.0985
BTK | 3 | 0.424
BTK | 4 | -0.699
BTK | 5 | 1.17
BTK | 6 | 0.451
NFKBIE | 1 | -0.833
NFKBIE | 2 | -1.33
NFKBIE | 3 | -1.37
NFKBIE | 4 | -2.1 (active)
NFKBIE | 5 | -2.11 (active)
NFKBIE | 6 | -1.89 (active)
PTK2B | 1 | -0.994
PTK2B | 2 | -0.862
PTK2B | 3 | 0.829
PTK2B | 4 | -0.97
PTK2B | 5 | -1.39
PTK2B | 6 | -1.45
IRF7 | 1 | -0.644
IRF7 | 2 | -1.4
IRF7 | 3 | 1.03
IRF7 | 4 | -0.637
IRF7 | 5 | -1.08
IRF7 | 6 | 0.124
IFNAR2 | 1 | -2.74 (active)
IFNAR2 | 2 | -1.29
IFNAR2 | 3 | -1.67 (active)
IFNAR2 | 4 | -1.07
IFNAR2 | 5 | -0.501
IFNAR2 | 6 | -0.794
FADD | 1 | 0.237
FADD | 2 | -0.55
FADD | 3 | -0.0423
FADD | 4 | -1.07
FADD | 5 | -0.712
FADD | 6 | -2.13 (active)

The list goes on; the last 5 above are carried over.
Gene | reagent | TNF reporter z-score, replicate mean
FADD | 2 | -0.55
FADD | 3 | -0.0423
FADD | 4 | -1.07
FADD | 5 | -0.712
FADD | 6 | -2.13 (active)
RAC1 | 1 | -0.374
RAC1 | 2 | 0.589
RAC1 | 3 | -0.461
RAC1 | 4 | -0.327
RAC1 | 5 | 1.15
RAC1 | 6 | -0.841
RIPK1 | 1 | 0.384
RIPK1 | 2 | 1.2
RIPK1 | 3 | 0.558
RIPK1 | 4 | -1.17
RIPK1 | 5 | -0.501
RIPK1 | 6 | -1.56 (active)
MAPK14 | 1 | -1.92 (active)
MAPK14 | 2 | -0.779
MAPK14 | 3 | -0.832
MAPK14 | 4 | -1.7 (active)
MAPK14 | 5 | -0.243
MAPK14 | 6 | -0.512
TRADD | 1 | -1.72 (active)
TRADD | 2 | -0.189
TRADD | 3 | 0.488
TRADD | 4 | 0.124
TRADD | 5 | 1.34
TRADD | 6 | -1.15
IFNB1 | 1 | -1.15
IFNB1 | 2 | -1.54 (active)
IFNB1 | 3 | -0.571
IFNB1 | 4 | -0.557
IFNB1 | 5 | -0.615
IFNB1 | 6 | -2.09 (active)
EGR2 | 1 | -1.25
EGR2 | 2 | -1.06
EGR2 | 3 | 0.0466
EGR2 | 4 | -1.31
EGR2 | 5 | -1.16
EGR2 | 6 | -1.5 (active)
TANK | 1 | -0.421
TANK | 2 | 0.2
TANK | 3 | -0.846
TANK | 4 | 0.359
TANK | 5 | -1.1
TANK | 6 | -0.52
MAPK3 | 1 | -0.419
MAPK3 | 2 | -1.28
MAPK3 | 3 | -1.04
MAPK3 | 4 | 0.137
MAPK3 | 5 | 0.161
MAPK3 | 6 | -2 (active)
TOLLIP | 1 | -1.18
TOLLIP | 2 | -0.538
TOLLIP | 3 | -0.0064
TOLLIP | 4 | -2.91 (active)
TOLLIP | 5 | -0.499
TOLLIP | 6 | -0.843
IRF3 | 1 | 0.816
IRF3 | 2 | -1.4
IRF3 | 3 | -1.38
IRF3 | 4 | 1.96 (active)
IRF3 | 5 | -2.98 (active)
IRF3 | 6 | -1.13
ETS1 | 1 | -0.124
ETS1 | 2 | -1.74 (active)
ETS1 | 3 | -0.415
ETS1 | 4 | -0.544
ETS1 | 5 | 0.946
ETS1 | 6 | -1.32
IL33R | 1 | -0.189
IL33R | 2 | -1.06
IL33R | 3 | 0.561
IL33R | 4 | 0.778
IL33R | 5 | -0.207
IL33R | 6 | -0.0549
